Counter-ions that a name gives are not always drawn. ± gives the standard deviation of the averaged measurements. What follows is the remainder of the data, with few or none of the lowest values.
What follows are compounds tested on E. coli TESEC Mtb Asd (assay: growth (OD600 after 10 h); higher = more growth (less inhibition)). Conditions: arabinose induction (level): High; compound 0.1 mM; raw OD600 reference: median of DMSO wells 0.331, cell-free background 0.041.
Experimental: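 TESEC E. coli strains in which the native enzyme is deleted and replaced by arabinose-inducible Mtb Asd, DapB, CysH or TrpD, each grown in its selective medium. Strains were screened against the Prestwick library at 0.1 mM and 1% DMSO in 384-well format at low and high arabinose induction. Growth is read as OD600 after 10 h in triplicate.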

| SMILES | growth |
| --- | --- |
| CN1[C@@H]2CC[C@H]1C[C@@H](OC(=O)C(O)c1ccccc1)C2 (mixture of isomers) [Homatropine hydrobromide (R,S)] | 0.402 ± 0.038 |

Same assay, conditions: arabinose induction (level): Low; compound 0.1 mM; raw OD600 reference: median of DMSO wells 0.417, cell-free background 0.041

| SMILES | growth |
| --- | --- |
| CN1[C@@H]2CC[C@H]1C[C@@H](OC(=O)C(O)c1ccccc1)C2 (mixture of isomers) [Homatropine hydrobromide (R,S)] | 0.421 ± 0.027 |

— the supplement of paper PMC9262897, “Low-cost anti-mycobacterial drug discovery using engineered E. coli” (Nature Communications, 2022)
